Data on one molecule can be found in paper PMC5323128.

Results are given in words; binding and its absence hold for the method and conditions named. In cells and extracts the contact can be indirect.

For the experiment, the target named is DR5, endogenous in Jurkat cells (human (endogenous in Jurkat)), O14763. As to the kind of experiment: co-IP; Jurkat cells treated with TRAIL^mim/DR5; immunoprecipitation analysis with anti-caspase-8 (clone C20) and anti-DR5 (Chemicon) antibodies; no further details told. The settings on record: remark: other sources report otherwise.

B1: Caspase-8, endogenous in Jurkat cells, Q14790 1-479 (enzyme)
chain: MDFSRNLYDIGEQLDSEDLASLKFLSLDYIPQRKQEPIKDALMLFQRLQEKRMLEESNLSFLKELLFRINRLDLLITYLNTRKEEMERELQTPGRAQISAYRVMLYQISEEVSRSELRSFKFLLQEEISKCKLDDDMNLLDIFIEMEKRVILGEGKLDILKRVCAQINKSLLKIINDYEEFSKERSSSLEGSPDEFSNGEELCGVMTISDSPREQDSESQTLDKVYQMKSKPRGYCLIINNHNFAKAREKVPKLHSIRDRNGTHLDAGALTTTFEELHFEIKPHDDCTVEQIYEILKIYQLMDHSNMDCFICCILSHGDKGIIYGTDGQEAPIYELTSQFTGLKCPSLAGKPKVFFIQACQGDNYQKGIPVETDSEEQPYLEMDLSSPQTRYIPDEADFLLGMATVNNCVSYRNPAEGTWYIQSLCQSLRERCPRGDDILTILTEVNYEVSNKDDKKNMGKQMPQPTFTLRKKLVFPSD
Consider B1, for which the binding result is “no binding”.
